In assay [1] the target is T1, recombinant human factor B (human, UniProt P00751 26-764, biotinylated (EZ-link) in the Octet assay only; sites not stated).
T1 construct: also called purified factor B protein
In words: ELISA, factor B coated on plate. For orientation: An ELISA detects its analyte on a solid surface through an enzyme-linked reagent.

By UniProt entry, the sequences of proteins in these tests, tags left out. Where a name states a change or a piece, a line headed by the entry shows the natural chain unless it says otherwise.
UniProt P00751: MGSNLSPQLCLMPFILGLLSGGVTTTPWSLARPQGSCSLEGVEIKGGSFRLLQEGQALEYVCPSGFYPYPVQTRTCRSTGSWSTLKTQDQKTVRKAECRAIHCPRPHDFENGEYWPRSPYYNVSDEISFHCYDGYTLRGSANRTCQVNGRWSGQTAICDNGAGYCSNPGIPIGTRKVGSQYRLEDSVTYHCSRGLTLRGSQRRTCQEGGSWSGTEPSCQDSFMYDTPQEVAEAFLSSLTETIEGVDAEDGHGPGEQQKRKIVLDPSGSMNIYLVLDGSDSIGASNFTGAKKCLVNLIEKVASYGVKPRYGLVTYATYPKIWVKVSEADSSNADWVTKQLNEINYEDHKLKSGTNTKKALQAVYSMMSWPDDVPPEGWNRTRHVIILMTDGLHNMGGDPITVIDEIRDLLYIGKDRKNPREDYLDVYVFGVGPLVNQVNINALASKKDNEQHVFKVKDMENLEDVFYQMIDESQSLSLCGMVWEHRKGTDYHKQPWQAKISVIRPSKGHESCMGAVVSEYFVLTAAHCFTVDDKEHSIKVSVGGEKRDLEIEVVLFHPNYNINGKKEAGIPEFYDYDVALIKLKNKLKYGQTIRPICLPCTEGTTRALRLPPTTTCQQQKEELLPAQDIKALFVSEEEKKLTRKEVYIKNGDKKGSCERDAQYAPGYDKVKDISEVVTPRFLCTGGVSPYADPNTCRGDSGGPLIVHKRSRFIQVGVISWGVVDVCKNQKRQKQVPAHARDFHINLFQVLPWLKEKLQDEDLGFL

In assay [2] the target is T1, recombinant human factor B. In words: dilution ELISA, factor B coated on plate.
Assay [3] deals with T1, recombinant human factor B. As to the kind of experiment: dilution ELISA, factor B coated at 100, 50, 25 and 12.5 ng/well, Fab 0.1-200 nM [upper panel].
Assay [4] concerns the target T1, recombinant human factor B. As to the kind of experiment: dilution ELISA, factor B coated at 100, 50, 25 and 12.5 ng/well, Fab 0.1-200 nM [lower panel].

No constants are given. Whether binding was seen depends on the method and setting. Some results given as binding are weak or reduced against the parent protein; the word gives no strength.

B1: cloned Fab' TA003 (Fab, V domains shown)
VH: EVQLQQSGPELVKPGASVKIPCKASGYTFTDYNMDWVKQSHGKSLEWIGDINPNNGGTIYNQKFKGKATLTVDKSSSTAYMELRSLTSEDTAVYYCARGYYSNSAWFAYWGQGTLVTVSA
VL: DIVMSQSPSSLAVSAGEKVTMSCKSSQSLLNSRTRKNYLAWYQQKPGQSPKLLIYWASTRESGVPDRFTGSGSGTDFTLTISSVQAEDLAVYYCKQSYNLPWTFGGGTKLEIKR
notes: No sentence ties the name TA003 to these numbers directly; also called the cloned Fab'; purified Fab' protein (cloned V-regions from the hybridoma producing mAb 1379)
Take B1: the binding entry in assay [1], in assay [2] and in assay [3] was “binds” throughout.

B2: Fab' derived from mAb 1379 by papain digestion (Fab, V domains shown)
VH: EVQLQQSGPELVKPGASVKIPCKASGYTFTDYNMDWVKQSHGKSLEWIGDINPNNGGTIYNQKFKGKATLTVDKSSSTAYMELRSLTSEDTAVYYCARGYYSNSAWFAYWGQGTLVTVSA
VL: DIVMSQSPSSLAVSAGEKVTMSCKSSQSLLNSRTRKNYLAWYQQKPGQSPKLLIYWASTRESGVPDRFTGSGSGTDFTLTISSVQAEDLAVYYCKQSYNLPWTFGGGTKLEIKR
notes: Papain fragment of the murine IgG1 kappa hybridoma antibody mAb 1379 (ATCC PTA-6230); also called murine Fab
On to B2, for which the binding result in assay [4] and in assay [2] was “binds” in each case.
